“Also recorded” adds a separate entry of the source. At least one structure is not confirmed: it was looked up by name or label, or the drawing left a doubt.
Key:
[1] = system: Trichophyton mentagrophytes ATCC MYA 4439; assay: MIC study in broth culture, sodium chlorite and itraconazole; format: cell-based; settings: combined with sodium chlorite; listed as itraconazole
[2] = system: Trichophyton rubrum ATCC MYA 4438; assay: as above; format: cell-based; settings: combined with sodium chlorite; listed as itraconazole
Method: As shown in the examples, in vitro data was generated and the minimum inhibitory concentrations (MIC) tests were determined in broth culture using ATCC MYA 4438. Itraconazole is the azole used in the study. […] On the X-axis are dilutions of itraconazole. Fungal Growth is noted by a + and lack of growth by a −.
Referring to FIG. 18, the experiments were repeated with the strain Trichophyton rubrum.

[3] = format: in vivo, human; settings: subject's history before the study
Source text: Compositions were topically applied to various skin and nail conditions. […] The solution was applied by dropper to affected areas, or combined with a bioactive agent and then applied to the affected area or applied sequentially to the affected area at least once daily, preferably twice daily during treatment period. […] Background: A subject was diagnosed with Dyshidrosis in March of 2012. Symptoms included small blisters on the palms of their hands and the underside of their fingers with scaling. […] They abandoned the treatment. Symptoms continued. They occasionally self-treated the condition with over the counter Lamisil. […] Treatment: […]

CCC(C)n1ncn(-c2ccc(N3CCN(c4ccc(OCC5COC(Cn6cncn6)(c6ccc(Cl)cc6Cl)O5)cc4)CC3)cc2)c1=O (stereo not drawn) [Itraconazole, itraconazole]
decrease of itraconazole MIC [1]: fourfold; also recorded: two-fold
decrease of itraconazole MIC [2]: four-fold

CC1(C)O[C@@H]2C[C@H]3[C@@H]4CCC5=CC(=O)C=C[C@]5(C)[C@@]4(F)[C@@H](O)C[C@]3(C)[C@]2(C(=O)CO)O1 [Triamcinolone Acetonide]
result of earlier treatment of the subject's Dyshidrosis [3]: little improvement

From US20210260106A1, “CHLORITE-CONTAINING COMPOSITIONS” (ClearCrescent Technologies, LLC, priority 2008, published 2021)
